Experimental data: the supplement of paper PMC10849652
The other results are listed elsewhere or left out.

The chains behind the UniProt entries cited, without tags or fusion partners. Where a name states a change or a piece, a line headed by the entry shows the natural chain unless it says otherwise.
UniProt Q8IX01: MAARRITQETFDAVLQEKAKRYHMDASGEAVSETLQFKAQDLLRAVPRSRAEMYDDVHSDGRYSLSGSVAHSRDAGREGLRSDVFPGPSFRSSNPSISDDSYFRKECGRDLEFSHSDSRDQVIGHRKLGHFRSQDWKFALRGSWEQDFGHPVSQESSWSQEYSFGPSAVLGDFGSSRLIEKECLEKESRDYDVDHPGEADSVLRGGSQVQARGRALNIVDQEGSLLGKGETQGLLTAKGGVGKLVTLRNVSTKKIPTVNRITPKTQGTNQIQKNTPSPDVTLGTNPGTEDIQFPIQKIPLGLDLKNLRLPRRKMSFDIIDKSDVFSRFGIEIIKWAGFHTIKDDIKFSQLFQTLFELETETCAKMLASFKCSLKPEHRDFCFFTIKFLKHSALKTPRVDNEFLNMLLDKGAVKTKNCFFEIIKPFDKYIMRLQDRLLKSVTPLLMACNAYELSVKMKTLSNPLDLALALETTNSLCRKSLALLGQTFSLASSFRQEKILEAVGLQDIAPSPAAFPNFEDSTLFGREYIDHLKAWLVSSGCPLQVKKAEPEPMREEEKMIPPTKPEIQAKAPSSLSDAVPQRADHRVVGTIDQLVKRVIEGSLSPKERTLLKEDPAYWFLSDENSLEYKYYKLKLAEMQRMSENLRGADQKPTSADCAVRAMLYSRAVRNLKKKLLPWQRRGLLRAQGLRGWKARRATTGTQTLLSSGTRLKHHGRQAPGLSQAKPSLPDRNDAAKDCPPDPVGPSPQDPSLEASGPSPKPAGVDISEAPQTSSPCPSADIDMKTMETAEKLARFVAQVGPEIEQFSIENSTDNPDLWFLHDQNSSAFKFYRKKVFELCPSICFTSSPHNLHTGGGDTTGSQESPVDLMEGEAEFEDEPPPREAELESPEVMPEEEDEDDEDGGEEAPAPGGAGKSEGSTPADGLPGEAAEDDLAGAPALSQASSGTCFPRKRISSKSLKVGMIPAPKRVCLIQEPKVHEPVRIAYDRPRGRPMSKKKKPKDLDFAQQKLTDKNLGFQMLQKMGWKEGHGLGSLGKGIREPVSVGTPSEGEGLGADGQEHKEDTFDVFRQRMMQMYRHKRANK
UniProt Q13033: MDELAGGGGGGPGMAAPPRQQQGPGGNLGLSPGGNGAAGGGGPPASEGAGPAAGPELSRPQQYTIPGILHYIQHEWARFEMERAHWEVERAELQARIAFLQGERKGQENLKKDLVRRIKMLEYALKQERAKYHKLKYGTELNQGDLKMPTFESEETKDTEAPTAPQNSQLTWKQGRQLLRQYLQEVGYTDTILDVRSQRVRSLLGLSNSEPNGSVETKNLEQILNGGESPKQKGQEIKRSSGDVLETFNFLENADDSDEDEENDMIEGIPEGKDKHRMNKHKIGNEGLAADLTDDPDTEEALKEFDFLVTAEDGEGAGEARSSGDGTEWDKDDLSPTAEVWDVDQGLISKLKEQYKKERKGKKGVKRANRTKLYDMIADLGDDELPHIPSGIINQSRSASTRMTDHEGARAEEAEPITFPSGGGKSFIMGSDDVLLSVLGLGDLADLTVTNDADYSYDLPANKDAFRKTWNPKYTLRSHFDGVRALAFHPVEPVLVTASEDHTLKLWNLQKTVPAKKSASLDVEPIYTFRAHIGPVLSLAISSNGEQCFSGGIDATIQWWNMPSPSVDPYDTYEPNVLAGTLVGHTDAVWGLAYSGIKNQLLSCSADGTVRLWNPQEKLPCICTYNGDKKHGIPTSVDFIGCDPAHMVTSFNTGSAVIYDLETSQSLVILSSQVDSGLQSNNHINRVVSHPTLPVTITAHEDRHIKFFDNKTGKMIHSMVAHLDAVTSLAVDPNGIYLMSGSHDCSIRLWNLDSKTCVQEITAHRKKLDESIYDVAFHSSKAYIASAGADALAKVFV
UniProt Q9Y2Z0: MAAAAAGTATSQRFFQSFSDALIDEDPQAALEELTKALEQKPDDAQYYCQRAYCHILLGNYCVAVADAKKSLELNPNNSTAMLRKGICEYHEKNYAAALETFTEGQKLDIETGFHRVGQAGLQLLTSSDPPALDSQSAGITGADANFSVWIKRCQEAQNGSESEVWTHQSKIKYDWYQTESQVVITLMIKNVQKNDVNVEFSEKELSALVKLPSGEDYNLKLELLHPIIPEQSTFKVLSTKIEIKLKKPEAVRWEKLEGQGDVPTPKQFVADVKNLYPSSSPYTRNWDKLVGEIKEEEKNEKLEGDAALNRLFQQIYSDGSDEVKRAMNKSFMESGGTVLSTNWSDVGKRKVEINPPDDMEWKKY
UniProt P08247, whole entry, looked up: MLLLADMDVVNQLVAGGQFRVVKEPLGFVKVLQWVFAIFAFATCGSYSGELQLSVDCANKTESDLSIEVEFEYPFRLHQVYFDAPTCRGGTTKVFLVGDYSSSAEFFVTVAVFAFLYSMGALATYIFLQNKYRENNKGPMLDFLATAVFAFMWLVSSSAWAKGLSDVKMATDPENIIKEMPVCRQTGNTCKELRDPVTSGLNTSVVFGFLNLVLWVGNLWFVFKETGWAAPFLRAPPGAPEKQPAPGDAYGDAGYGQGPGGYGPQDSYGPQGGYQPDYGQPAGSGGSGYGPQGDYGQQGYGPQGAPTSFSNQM
UniProt O15056: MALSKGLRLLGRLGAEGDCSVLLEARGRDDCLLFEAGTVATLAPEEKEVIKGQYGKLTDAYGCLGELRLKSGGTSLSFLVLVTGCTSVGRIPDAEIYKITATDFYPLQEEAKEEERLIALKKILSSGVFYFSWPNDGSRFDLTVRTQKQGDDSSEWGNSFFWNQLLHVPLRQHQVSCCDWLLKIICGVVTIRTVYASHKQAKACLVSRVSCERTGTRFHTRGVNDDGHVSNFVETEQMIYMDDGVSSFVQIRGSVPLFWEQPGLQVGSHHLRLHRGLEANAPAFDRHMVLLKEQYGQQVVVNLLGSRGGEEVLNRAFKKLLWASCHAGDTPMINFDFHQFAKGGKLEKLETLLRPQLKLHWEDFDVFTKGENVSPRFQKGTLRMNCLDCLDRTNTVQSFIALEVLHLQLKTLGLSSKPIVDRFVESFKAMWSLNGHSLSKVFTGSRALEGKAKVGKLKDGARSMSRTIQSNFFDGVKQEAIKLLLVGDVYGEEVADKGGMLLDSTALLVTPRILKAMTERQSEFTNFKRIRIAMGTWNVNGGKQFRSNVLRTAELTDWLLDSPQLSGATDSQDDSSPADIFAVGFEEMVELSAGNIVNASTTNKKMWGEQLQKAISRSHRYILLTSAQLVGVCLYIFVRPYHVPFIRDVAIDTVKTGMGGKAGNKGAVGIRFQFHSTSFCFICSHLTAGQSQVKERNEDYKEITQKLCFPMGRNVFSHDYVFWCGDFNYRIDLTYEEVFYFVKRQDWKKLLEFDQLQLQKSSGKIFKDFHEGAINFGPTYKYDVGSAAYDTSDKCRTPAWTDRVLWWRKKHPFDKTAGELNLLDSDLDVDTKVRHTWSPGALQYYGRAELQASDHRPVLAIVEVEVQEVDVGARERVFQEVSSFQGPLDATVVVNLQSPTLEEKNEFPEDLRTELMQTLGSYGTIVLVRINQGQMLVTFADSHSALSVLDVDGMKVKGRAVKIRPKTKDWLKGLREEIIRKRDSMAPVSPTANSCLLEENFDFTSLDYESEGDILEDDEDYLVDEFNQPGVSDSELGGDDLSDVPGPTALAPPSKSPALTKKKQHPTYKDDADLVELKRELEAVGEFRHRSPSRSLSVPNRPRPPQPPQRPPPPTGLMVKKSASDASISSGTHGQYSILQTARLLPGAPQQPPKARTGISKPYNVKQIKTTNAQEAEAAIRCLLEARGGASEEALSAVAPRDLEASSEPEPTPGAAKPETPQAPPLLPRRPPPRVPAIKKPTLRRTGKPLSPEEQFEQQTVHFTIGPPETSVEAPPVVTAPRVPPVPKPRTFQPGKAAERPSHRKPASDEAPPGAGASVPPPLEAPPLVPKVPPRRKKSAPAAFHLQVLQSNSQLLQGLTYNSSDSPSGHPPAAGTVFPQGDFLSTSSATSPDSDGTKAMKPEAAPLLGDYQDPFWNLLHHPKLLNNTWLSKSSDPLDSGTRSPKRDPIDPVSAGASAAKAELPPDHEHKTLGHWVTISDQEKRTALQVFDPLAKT
UniProt Q16514: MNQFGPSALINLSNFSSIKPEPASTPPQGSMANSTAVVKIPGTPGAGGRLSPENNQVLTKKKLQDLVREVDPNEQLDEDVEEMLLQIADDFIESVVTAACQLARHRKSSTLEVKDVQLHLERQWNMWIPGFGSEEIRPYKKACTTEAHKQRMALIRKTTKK
UniProt P08842: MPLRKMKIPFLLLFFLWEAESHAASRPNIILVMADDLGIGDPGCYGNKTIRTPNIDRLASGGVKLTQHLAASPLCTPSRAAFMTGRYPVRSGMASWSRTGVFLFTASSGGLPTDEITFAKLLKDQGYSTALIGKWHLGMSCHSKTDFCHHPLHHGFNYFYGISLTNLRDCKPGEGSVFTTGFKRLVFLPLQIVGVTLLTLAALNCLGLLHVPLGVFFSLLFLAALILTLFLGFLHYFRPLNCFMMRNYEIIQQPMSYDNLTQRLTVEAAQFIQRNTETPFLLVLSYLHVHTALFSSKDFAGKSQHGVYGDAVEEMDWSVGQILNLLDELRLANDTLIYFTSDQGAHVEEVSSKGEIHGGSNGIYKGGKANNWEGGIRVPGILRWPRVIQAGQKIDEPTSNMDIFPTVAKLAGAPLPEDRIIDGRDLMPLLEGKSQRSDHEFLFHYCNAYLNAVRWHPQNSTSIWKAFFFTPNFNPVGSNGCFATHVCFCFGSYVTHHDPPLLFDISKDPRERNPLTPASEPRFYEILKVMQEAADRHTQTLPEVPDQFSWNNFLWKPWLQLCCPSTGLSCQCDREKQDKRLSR
UniProt Q15543, whole entry, looked up: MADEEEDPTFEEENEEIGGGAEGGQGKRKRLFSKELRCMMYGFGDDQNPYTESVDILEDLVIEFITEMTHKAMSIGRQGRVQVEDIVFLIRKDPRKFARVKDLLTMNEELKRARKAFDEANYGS
UniProt Q13148, whole entry, looked up: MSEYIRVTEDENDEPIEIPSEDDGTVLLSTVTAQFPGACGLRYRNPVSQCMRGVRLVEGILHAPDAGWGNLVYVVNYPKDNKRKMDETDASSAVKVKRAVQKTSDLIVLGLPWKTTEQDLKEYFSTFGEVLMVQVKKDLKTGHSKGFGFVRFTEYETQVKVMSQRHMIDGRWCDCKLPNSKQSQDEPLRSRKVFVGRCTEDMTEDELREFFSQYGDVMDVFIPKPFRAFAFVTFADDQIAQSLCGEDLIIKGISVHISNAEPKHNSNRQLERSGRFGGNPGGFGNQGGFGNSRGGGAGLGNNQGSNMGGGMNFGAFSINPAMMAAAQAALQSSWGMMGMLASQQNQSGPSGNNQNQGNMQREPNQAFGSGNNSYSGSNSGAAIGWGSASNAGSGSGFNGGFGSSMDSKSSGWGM
UniProt Q8NHG7: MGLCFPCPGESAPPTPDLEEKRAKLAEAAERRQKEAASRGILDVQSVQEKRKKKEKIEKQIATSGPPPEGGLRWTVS
UniProt Q01995: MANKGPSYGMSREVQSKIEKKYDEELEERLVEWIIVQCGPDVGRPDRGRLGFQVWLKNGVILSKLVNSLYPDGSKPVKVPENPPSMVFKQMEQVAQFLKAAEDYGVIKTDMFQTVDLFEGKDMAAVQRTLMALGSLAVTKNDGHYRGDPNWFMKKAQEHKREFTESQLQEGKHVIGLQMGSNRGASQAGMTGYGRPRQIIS
UniProt Q96BN2: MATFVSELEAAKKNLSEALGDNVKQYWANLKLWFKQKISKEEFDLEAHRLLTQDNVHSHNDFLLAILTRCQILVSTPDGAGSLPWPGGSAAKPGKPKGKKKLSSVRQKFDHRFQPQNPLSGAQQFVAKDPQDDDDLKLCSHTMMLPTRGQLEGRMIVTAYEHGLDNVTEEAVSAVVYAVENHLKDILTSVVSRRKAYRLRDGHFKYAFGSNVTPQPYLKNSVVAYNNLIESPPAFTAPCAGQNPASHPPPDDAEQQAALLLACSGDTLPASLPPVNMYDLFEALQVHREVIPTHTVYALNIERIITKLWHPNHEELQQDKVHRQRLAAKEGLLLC
UniProt O15533, whole entry, looked up: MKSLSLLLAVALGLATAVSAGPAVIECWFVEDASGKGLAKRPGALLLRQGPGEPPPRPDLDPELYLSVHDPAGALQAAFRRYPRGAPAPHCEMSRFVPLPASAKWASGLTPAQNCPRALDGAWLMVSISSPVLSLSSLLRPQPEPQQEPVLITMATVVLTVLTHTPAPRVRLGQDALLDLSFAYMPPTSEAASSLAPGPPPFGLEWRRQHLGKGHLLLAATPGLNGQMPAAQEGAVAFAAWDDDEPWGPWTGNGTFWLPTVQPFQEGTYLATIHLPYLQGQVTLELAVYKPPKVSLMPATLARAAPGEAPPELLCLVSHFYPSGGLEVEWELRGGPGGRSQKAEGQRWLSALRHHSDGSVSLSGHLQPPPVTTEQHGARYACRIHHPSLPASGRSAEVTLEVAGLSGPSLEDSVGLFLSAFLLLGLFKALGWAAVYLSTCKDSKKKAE

Key:
Assay in all cases: log2 fold change, soluble protein after heating vs DMSO (PISA); higher = thermal stabilisation; K562 cells, 10 uM, 30 min; active = over 0.2 and 3.5 SD of the protein, either way, in both replicates (recomputed)
saracatinib = compound: CN1CCN(CCOc2cc(OC3CCOCC3)c3c(Nc4c(Cl)ccc5c4OCO5)ncnc3c2)CC1 [saracatinib]
How it was run: (§1)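 Soluble protein was defined as the supernatant after 21,000xg for 90 min. It came from K562 cells at 2×10^6 cells/mL given 10 μM compound for 30 min, heated in aliquots for 3 min across 48°C-58°C, pooled, and extracted in PBS with 0.5% NP-40 at 4°C, and was quantified by TMTpro 16plex LC-MS/MS with equalised channel sums. Thermal stability against control samples, from duplicates, is reported as log2 fold change.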

[1] = compound: CNc1nc(-c2ccc3c(N)n[nH]c3c2)cc(N2C[C@@H](C(=O)NC3CCCCC3)CC[C@H]2C)n1
How it was run: as §1

sotrastaurin = compound: CN1CCN(c2nc(C3=C(c4c[nH]c5ccccc45)C(=O)NC3=O)c3ccccc3n2)CC1 [sotrastaurin]
How it was run: as §1

[2] = compound: CNC(=O)C1=CC=CC=C1NC2=NC(=NC=C2Cl)NC3=C(C=C(C=C3)N4CCOCC4)OC
How it was run: as §1

Tubastatin A = compound: CN1CCc2c(c3ccccc3n2Cc2ccc(C(=O)NO)cc2)C1 [Tubastatin A]
How it was run: as §1

alvocidib = compound: CN1CC[C@H](c2c(O)cc(O)c3c(=O)cc(-c4ccccc4Cl)oc23)[C@H](O)C1 [alvocidib]
How it was run: as §1

defactinib = compound: CNC(=O)c1ccc(Nc2ncc(C(F)(F)F)c(NCc3nccnc3N(C)S(C)(=O)=O)n2)cc1 [defactinib]
How it was run: as §1

[3] = compound: COC(=O)[C@H](CCSC)NC(=O)C1=C(C=C(C=C1)NC[C@H](CS)N)C2=CC=CC=C2
How it was run: as §1

rucaparib = compound: CNCc1ccc(-c2[nH]c3cc(F)cc4c3c2CCNC4=O)cc1 [rucaparib]
How it was run: as §1

encorafenib = compound: COC(=O)N[C@@H](C)CNc1nccc(-c2cn(C(C)C)nc2-c2cc(Cl)cc(NS(C)(=O)=O)c2F)n1 [encorafenib]
How it was run: as §1

Measured: log2 fold change

SUZ12 (UniProt Q15022)
inactive: saracatinib -0.02 | [1] -0.016

SUGP2 (UniProt Q8IX01)
inactive: sotrastaurin 0.011

SULT1E1 (UniProt P49888)
inactive: [2] 0.14

TATDN1 isoform 2 (UniProt Q6P1N9)
inactive: [2] -0.119

STK40 isoform 4 (UniProt Q8N2I9)
inactive: saracatinib -0.23 | [1] 0.011

STYX (UniProt Q8WUJ0)
inactive: saracatinib 0.119 | Tubastatin A 0.245 | [2] -0.057 | [1] -0.075

STRN3 isoform 2 (UniProt Q13033)
inactive: alvocidib 0.019 | Tubastatin A -0.015 | [2] 0.102 | defactinib -0.004 | [3] -0.007

STXBP4 (UniProt Q6ZWJ1)
inactive: defactinib 0.025 | [3] -0.065

SYNGR1 isoform 3 (UniProt O43759)
inactive: Tubastatin A 0.138 | rucaparib -0.12 | encorafenib 0.236

TBC1D10A (UniProt Q9BXI6)
inactive: saracatinib -0.061 | Tubastatin A 0.086 | defactinib -0.264 | [1] 0 | [3] 0.089

SUPT7L (UniProt O94864)
inactive: [2] 0.115

STON2 isoform 3 (UniProt Q8WXE9)
inactive: Tubastatin A -0.198 | rucaparib -0.026 | encorafenib 0.076

TAF5 (UniProt Q15542)
inactive: [2] 0.416 | defactinib -0.163 | [3] -0.019

SUGT1 isoform 2 (UniProt Q9Y2Z0)
inactive: saracatinib 0.036 | Tubastatin A -0.002 | [2] 0.059 | defactinib -0.038 | rucaparib 0.079 | [1] -0.191 | encorafenib -0.125 | [3] -0.021

TAF5L (UniProt O75529)
inactive: rucaparib 0.115 | encorafenib 0.133

STOML1 (UniProt Q9UBI4)
inactive: Tubastatin A 0.125 | defactinib 0.096 | rucaparib -0.003 | encorafenib 0.009 | [3] -0.208

SYP (UniProt P08247)
inactive: saracatinib 0.12 | alvocidib -0.04 | Tubastatin A 0.076 | [2] 0.031 | defactinib -0.005 | rucaparib -0.157 | [1] -0.018 | encorafenib 0.047 | [3] 0.046

TAF4 (UniProt O00268)
inactive: sotrastaurin 0.021 | Tubastatin A 0.116 | [2] -0.135 | defactinib -0.044 | [3] -0.195

SYNJ2 (UniProt O15056)
inactive: saracatinib 0.371 | sotrastaurin 0.065 | [2] 0.051 | defactinib -0.007 | [1] 0.363 | [3] -0.095

TAF12 (UniProt Q16514)
inactive: sotrastaurin -0.056 | Tubastatin A 0.114 | [2] -0.032 | defactinib 0.023 | rucaparib -0.005 | encorafenib 0.308 | [3] -0.044

STS (UniProt P08842)
inactive: rucaparib -0.151 | encorafenib -0.047

STK35 (UniProt Q8TDR2)
inactive: saracatinib -0.248 | [1] 0.023

TBC1D12 (UniProt O60347)
inactive: alvocidib -0.059 | Tubastatin A 0.151 | [2] -0.081 | defactinib -0.018 | rucaparib 0.052 | encorafenib 0.134 | [3] -0.265

TASP1 (UniProt Q9H6P5)
inactive: [2] -0.351

STK3 isoform 2 (UniProt Q13188)
inactive: saracatinib 0.015 | sotrastaurin 0.028 | Tubastatin A -0.018 | defactinib -0.008 | rucaparib 0.035 | [1] -0.009 | encorafenib 0.015 | [3] 0.007

TAF13 (UniProt Q15543)
inactive: saracatinib -0.03 | sotrastaurin -0.081 | Tubastatin A 0.157 | defactinib -0.039 | [1] -0.036 | [3] 0.012

Two records drawn at random from those above:
TBC1D12 (UniProt O60347)
inactive: alvocidib -0.059 | Tubastatin A 0.151 | [2] -0.081 | defactinib -0.018 | rucaparib 0.052 | encorafenib 0.134 | [3] -0.265

STK3 isoform 2 (UniProt Q13188)
inactive: saracatinib 0.015 | sotrastaurin 0.028 | Tubastatin A -0.018 | defactinib -0.008 | rucaparib 0.035 | [1] -0.009 | encorafenib 0.015 | [3] 0.007

Further results

TAOK2 (UniProt Q9UL54)
inactive: Tubastatin A -0.003 | [2] 0.244 | rucaparib -0.012 | encorafenib -0.028

TARDBP (UniProt Q13148)
inactive: sotrastaurin -0.168 | alvocidib 0.17 | Tubastatin A 0.077 | [2] -0.086 | defactinib -0.037 | rucaparib 0.242 | encorafenib 0.083 | [3] -0.01

STK36 (UniProt Q9NRP7)
inactive: saracatinib -0.035 | [2] -0.438 | [1] 0.104

SVIP (UniProt Q8NHG7)
inactive: sotrastaurin 0.021 | alvocidib -0.003 | Tubastatin A -0.082 | [2] -0.004 | defactinib -0.059 | rucaparib -0.008 | encorafenib -0.039 | [3] 0.027

TAGLN (UniProt Q01995)
inactive: saracatinib 0.551 | sotrastaurin 0.101 | [2] -0.517 | rucaparib 0.059 | [1] -0.083 | encorafenib 0.1

TADA1 (UniProt Q96BN2)
inactive: [2] -0.016

SUPT5H isoform 2 (UniProt O00267)
inactive: defactinib -0.005 | [3] -0.058

TAZ (UniProt Q16635)
inactive: saracatinib -0.172 | [1] 0.028

TAB2 (UniProt Q9NYJ8)
inactive: sotrastaurin 0.109 | Tubastatin A 0.249 | defactinib -0.187 | [3] -0.036

TAPBP isoform 3 (UniProt O15533)
inactive: sotrastaurin -0.164 | alvocidib 0.078 | Tubastatin A 0.098 | [2] 0.012 | defactinib -0.059 | rucaparib -0.053 | encorafenib 0.194 | [3] -0.143

SYK (UniProt P43405)
inactive: saracatinib -0.151 | Tubastatin A 0.355 | [2] -0.113 | defactinib 0.249 | rucaparib 0.258 | [1] 0.03 | encorafenib 0.112 | [3] -0.012
